Literature values, collected in patent US20210315250A1, “COMBINATION BROAD-SPECTRUM ANTIVIRAL NATURAL EXTRACT SUPPLEMENTS” (priority 2020, published 2021).
At least one compound was matched to its structure with a doubt left.

Biological target: SARS-CoV 3CL (Severe acute respiratory syndrome coronavirus, UniProt P0C6X7)

C=C(C)[C@@H]1CC[C@]2(C(=O)O)CC[C@]3(C)[C@H](CC[C@@H]4[C@@]5(C)CC[C@H](O)C(C)(C)[C@@H]5CC[C@]43C)[C@@H]12 [Betulinic acid]
inhibition of the docking site for SARS-CoV 3CL: inhibit
